These results are taken from PMC7819943, “Rice protein-binding microarrays: a tool to detect cis-acting elements near promoter regions in rice”.

Amino acid sequences for entries named in this document (tags omitted).
UniProt Q0JBA9, entry or part of it: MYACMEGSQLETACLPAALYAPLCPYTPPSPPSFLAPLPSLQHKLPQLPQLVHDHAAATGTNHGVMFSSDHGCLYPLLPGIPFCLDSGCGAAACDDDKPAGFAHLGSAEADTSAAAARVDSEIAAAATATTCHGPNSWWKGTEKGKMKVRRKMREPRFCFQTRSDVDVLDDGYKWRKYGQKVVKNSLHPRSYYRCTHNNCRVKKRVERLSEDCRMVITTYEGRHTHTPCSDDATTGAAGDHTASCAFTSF

Some of the results follow.

The target of the assay is OsWRKY34 (Oryza sativa, UniProt Q0JBA9 1-250). Nature of the assay: protein-binding microarray (RPBM); PBS, 2% BSA, 51.3 ng/ul salmon testes DNA, 50 uM zinc acetate, 200 nM TF, 25 C, 1 h; high values mean tight binding. The settings on record: protein: recombinant; tags: N-terminal polyhistidine and DsRed monomer fusion (pET32a); label: CyDye5-dUTP incorporated in the synthesized complementary strand; 3' TTTTT single-stranded linker to array surface; dsDNA, one strand shown. The method, boiled down:
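In PBS with 2% BSA, salmon testes DNA and 50 µM zinc acetate, 200 nM protein was incubated on a custom Agilent array at 25 °C for 1 h and then washed off. The array had been made double-stranded by primer extension with Cy5-dUTP and blocked with 2% BSA. The proteins were transcription factors fused N-terminally to polyhistidine and DsRed, expressed in E. coli BL21-CodonPlus and purified on Ni–NTA. The binding signal is per-feature fluorescence intensity (arbitrary units) from an Axon 4000B scanner.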
On to “CCTTGATCGTATGCTTCTTACCCATAGCGCTTGTGATCACCGGAGTCACCTAGTGCAG”, for which the binding signal is 11900 fluorescence intensity (a.u.).
With “CGTTTTTTTTTCAAAATTTTGACCACTAATAGCTTCTCAACGGAGTCACCTAGTGCAG”, the binding signal is 10300 fluorescence intensity (a.u.).
To “CATTGGTAATTTTGTATAGTGCTTCTATATGTTTAGATTGCGGAGTCACCTAGTGCAG” belongs 8970 fluorescence intensity (a.u.).
To “GGGTTTAAGGGTTGGTTTGGTTTATGGTCTAGATAGGTCTCGGAGTCACCTAGTGCAG” belongs 10100 fluorescence intensity (a.u.); to “TCCACAACTGATTTTATTCCGACTTGTTTTTTTTTCTTTTCGGAGTCACCTAGTGCAG”, 10800 fluorescence intensity (a.u.); to “GATTATTTTTTTTCCAGATTTTCCTGTTTCGCTTTAACTTCGGAGTCACCTAGTGCAG”, 9920 fluorescence intensity (a.u.).
To “GTGTGCGCTTTCTGATTCTGTCGGGTTCCTTTCAGATGCACGGAGTCACCTAGTGCAG” belongs 10100 fluorescence intensity (a.u.).
In the case of “CCACCTATAAATATTGCATCGATCAACTCAAGTTGTCATCCGGAGTCACCTAGTGCAG”, the binding signal was 8420 fluorescence intensity (a.u.).
To “TAAATACGCCCTCGCCGTCTCCTCGCCGACCTCTCTCCGTCGGAGTCACCTAGTGCAG” belongs 8100 fluorescence intensity (a.u.); to “CCGCCGTCGTTCCGCCCACAGCTGCGCTCACCTACCGCCGCGGAGTCACCTAGTGCAG”, 8650 fluorescence intensity (a.u.).
To “ACTATCAGGTCTTGAAATCATTTATTGCTCCTTCTGAATTCGGAGTCACCTAGTGCAG” belongs 8790 fluorescence intensity (a.u.); to “TGCCAACACTTTCTGTTCCCAACATGTATTATTAGAACACCGGAGTCACCTAGTGCAG”, 9300 fluorescence intensity (a.u.).
Take “TTGTCCGTCAACTTGGCTTGATAGTGTTTATTCTAATATTCGGAGTCACCTAGTGCAG”: the binding signal was 10700 fluorescence intensity (a.u.).
The value for “AATTTTCTCTACATACGCATCCGATGACGTTAGAACCATACGGAGTCACCTAGTGCAG” was 8080 fluorescence intensity (a.u.); that for “CGAAAAGTCAACGGCGTTATAATGGAGGGAGTATTTTTTTCGGAGTCACCTAGTGCAG” was 10900 fluorescence intensity (a.u.).
To “TTGGTCCACGTGCTTTTCTGTTGTTTTACATACTCTGGCCCGGAGTCACCTAGTGCAG” belongs 9830 fluorescence intensity (a.u.).
Consider “AGTTCATCTACCTCTCTCCTTCACTTTACTCTCTCTCTCTCGGAGTCACCTAGTGCAG”, for which the binding signal is 10500 fluorescence intensity (a.u.).
To “GTTTATTTCTCTTGATTTATTTAATTGGTTTAACTTCTTTCGGAGTCACCTAGTGCAG” belongs 8030 fluorescence intensity (a.u.); to “TCTTGTATTCCTTTTCACTAATGTAGATACACATTTATCCCGGAGTCACCTAGTGCAG”, 10000 fluorescence intensity (a.u.).
To “GTGTATATAATCGACTAACTTCAGTAATCCTTCTGTTTCTCGGAGTCACCTAGTGCAG” belongs 9420 fluorescence intensity (a.u.); to “ATAAAATATTTTTTGTGTTGTTGTTTTTAATATAAATTATCGGAGTCACCTAGTGCAG”, 9090 fluorescence intensity (a.u.); to “AGTCTTTTTTCATCACATTAACCTATTATACACACATAACCGGAGTCACCTAGTGCAG”, 9110 fluorescence intensity (a.u.).
The value for “CCTTCGCGCCGCCGCCTGCTACTCCCCTGCGTCGCGTCGCCGGAGTCACCTAGTGCAG” was 8500 fluorescence intensity (a.u.); that for “TTGTCTCTTTGAGTTTTTGTCTATAACTTTTGATCATTCGCGGAGTCACCTAGTGCAG” was 8430 fluorescence intensity (a.u.); that for “TCTTGTTTTAATTAGCTTATCTTGTGTTCTAGTATAAAACCGGAGTCACCTAGTGCAG” was 10400 fluorescence intensity (a.u.).
In the case of “CTAGTCGTTGTTTGTGCTTTACTCTTGTTTGTGTGATAGACGGAGTCACCTAGTGCAG”, the binding signal was 9880 fluorescence intensity (a.u.).
To “TTCTTTCCTTTTTCTTTTGTTATCGGTTACCACAGTGTCTCGGAGTCACCTAGTGCAG” belongs 9080 fluorescence intensity (a.u.); to “GGGAGAGAGAGCCAACCGCGCACTACTTGTACTTCCTCATCGGAGTCACCTAGTGCAG”, 10500 fluorescence intensity (a.u.).
“TTGCTAGGGGAGTGATTTTTCTTGGTGATTTCATATGATCCGGAGTCACCTAGTGCAG”: the binding signal is 8860 fluorescence intensity (a.u.).
For the sequence “CACATTTTCACGATGTCCCTCAGCTAATTACGTGTTTTTTCGGAGTCACCTAGTGCAG”, the binding signal is 13700 fluorescence intensity (a.u.).
The value for “TTTGTCAGCTCATGTCCTTTGCAATGTTTGTAAGTTTGTTCGGAGTCACCTAGTGCAG” was 8320 fluorescence intensity (a.u.); that for “TTGGGTATGTGGGGAAGTGGAATCCAAGGGTATGCTTTACCGGAGTCACCTAGTGCAG” was 8930 fluorescence intensity (a.u.); that for “AGTTCATCTCCATGCATTCCAGTAAAGACCATTTTTAGGACGGAGTCACCTAGTGCAG” was 8100 fluorescence intensity (a.u.).
The value for “ATTTCTTATTCTTGAGGCCACCTATCACGACTTTTATGTACGGAGTCACCTAGTGCAG” was 10100 fluorescence intensity (a.u.).
As to “CGTCCCTGCCGTCCTGGTATACGGTGCATGCACGTACCCGCGGAGTCACCTAGTGCAG”, the binding signal was 8430 fluorescence intensity (a.u.).
Take “ATTTGTATTTGTTTTTTGTTTGTTAGTATTAGGGTGCTTTCGGAGTCACCTAGTGCAG”: the binding signal was 9720 fluorescence intensity (a.u.).
On to “GGTCCCACGTGTTATATGCGCATGTATCTTGAAGTTTTTGCGGAGTCACCTAGTGCAG”, for which the binding signal is 9190 fluorescence intensity (a.u.).
To “GGGTGAGCGGGGTGTGCTTGGTCGCGTCGCGTCGTGCCGTCGGAGTCACCTAGTGCAG” belongs 9110 fluorescence intensity (a.u.); to “CCTTTTGCTCACCTTTAAACAGCCTCATTTTTTTCGTTTACGGAGTCACCTAGTGCAG”, 10800 fluorescence intensity (a.u.); to “ACCACTCTACCACAACCATTACGCTATCCGCCACGAGCAACGGAGTCACCTAGTGCAG”, 8620 fluorescence intensity (a.u.).
Regarding “TCCCGGGATTCAAGCATTCCGCCCAGCAAACGCACCAAACCGGAGTCACCTAGTGCAG”, the binding signal was 8670 fluorescence intensity (a.u.).
With “CATGGGCTGCAAGTGGGTTACGATCTCTTTTTTCCGGTGCCGGAGTCACCTAGTGCAG”, the binding signal is 9020 fluorescence intensity (a.u.).
